Reference: PubChem BioAssay AID1259405 (NCATS, 2018)

Test: 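Knock-downs that lift recombinant protein yield in hamster ovary cells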 (primary screen)
Cell system: Chinese hamster CHO-K1 ovary cells with stable secreted eGFP expression
Knock-down reagent: single siRNA against mouse genes, 0.8 pmol siRNA per well (2 µl of 400 nM stock)
Time to read-out: 3 days
Read-out: 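Per-well intracellular GFP measured by laser scanning cytometry, plus viability from ATP luminescence, each relative to plate median of non-targeting control wells, in %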
Scale: GFP, % of control: higher = more GFP per well, higher productivity; viability (ATP), % of control: higher = more viable cells (more ATP)
Active means: 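a knock-down is called active if GFP reaches 120% or more of non-targeting control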
Shown is an unselected part of about 50,000 deposited reagents. In the full data, about 4,000 (8%) are marked active. 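Mouse siRNA library applied to hamster cells; one well for each siRNA.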 A number with no mark means an inactive call. The numbers tell different reagents against one gene apart.

| gene | reagent no. | GFP, % of control | viability (ATP), % of control |
| --- | --- | --- | --- |
| Pdk3 | 1 | 72.2 | 60.9 |
| Klhdc10 | 1 | 62.2 | 61.8 |
| Klhdc10 | 2 | 117 | 95.7 |
| Klhdc10 | 3 | 73.5 | 78.3 |
| Myo7a | 1 | 53.2 | 45.7 |
| Myo7a | 2 | 87 | 95.6 |
| Nhlh2 | 1 | 77.4 | 91 |
| Nhlh2 | 2 | 119 | 90.3 |
| Nhlh2 | 3 | 79.2 | 116 |
| Cdca4 | 1 | 97 | 102 |
| Cdca4 | 2 | 128 (active) | 97.2 |
| Cdca4 | 3 | 94.1 | 117 |
| Ergic1 | 1 | 98.6 | 127 |
| Ergic1 | 2 | 102 | 99.5 |
| Ergic1 | 3 | 115 | 46.1 |
| Tnfrsf11b | 1 | 86 | 75.4 |
| Tnfrsf11b | 2 | 65.9 | 47.1 |
| Tnfrsf11b | 3 | 65 | 52.1 |
| Vash1 | 1 | 73.6 | 70.1 |
| Vash1 | 2 | 81.4 | 75.2 |
| Vash1 | 3 | 133 (active) | 86.3 |
| Or52i2 | 1 | 80 | 70.4 |
| Or52i2 | 2 | 108 | 104 |
| Or52i2 | 3 | 53.7 | 73.3 |
| Slamf7 | 1 | 120 (active) | 87.6 |
| Slamf7 | 2 | 104 | 98.8 |
| Slamf7 | 3 | 89.2 | 87.9 |
| Fbxo21 | 1 | 82.7 | 77.2 |
| Fbxo21 | 2 | 52.4 | 53.3 |
| Fbxo21 | 3 | 52 | 58.3 |
| 1110038F14Rik | 1 | 103 | 87.7 |
| 1110038F14Rik | 2 | 48.5 | 46.8 |
| 1110038F14Rik | 3 | 20.7 | 27.1 |
| Vmn2r66 | 1 | 80.8 | 82 |
| Vmn2r66 | 2 | 88.2 | 77.6 |
| Vmn2r66 | 3 | 141 (active) | 63.9 |
| Rad54l2 | 1 | 37.1 | 48.6 |
| Rad54l2 | 2 | 103 | 84.1 |
| Rad54l2 | 3 | 34.8 | 49.4 |
| Or9k2b | 1 | 45.1 | 43.2 |
| Or9k2b | 2 | 86.1 | 90.3 |
| Or9k2b | 3 | 69.7 | 59.9 |
| Aldh1l1 | 1 | 102 | 92.8 |
| Aldh1l1 | 2 | 83 | 73.1 |
| Aldh1l1 | 3 | 79.1 | 73.1 |
| Or4c120 | 1 | 49.1 | 38.3 |
| Or4c120 | 2 | 83.6 | 66.6 |
| Or4c120 | 3 | 43.1 | 74.6 |
| Oprl1 | 1 | 85.1 | 85.6 |
| Oprl1 | 2 | 78.2 | 75.4 |
| Oprl1 | 3 | 79.6 | 69.9 |
| Prok2 | 1 | 66.2 | 75.4 |
| Prok2 | 2 | 63.9 | 59 |
| Prok2 | 3 | 72.7 | 91.2 |
| Serpinb10 | 1 | 65.4 | 80.5 |
| Serpinb10 | 2 | 70.5 | 84.1 |
| Serpinb10 | 3 | 89.9 | 77.8 |
| Asf1b | 1 | 175 (active) | 117 |
| Asf1b | 2 | 89.6 | 74 |
| Asf1b | 3 | 43.9 | 66.1 |
| Ltc4s | 1 | 101 | 80.7 |
| Ltc4s | 2 | 48.1 | 69.7 |
| Ltc4s | 3 | 81.3 | 65.5 |
| Gnat1 | 1 | 129 (active) | 59 |
| Gnat1 | 2 | 60.4 | 86 |
| Gnat1 | 3 | 81.6 | 59.8 |
| Srsf2 | 1 | 145 (active) | 95.2 |
| Srsf2 | 2 | 122 (active) | 84.4 |
| Ccdc124 | 1 | 49.5 | 53.9 |
| Ccdc124 | 2 | 23.3 | 21.2 |
| Ccdc124 | 3 | 99.8 | 102 |
| Plekhm1 | 1 | 41.1 | 42.9 |
| Plekhm1 | 2 | 89.1 | 84.6 |
| Plekhm1 | 3 | 49.4 | 67 |
| Igfbp4 | 1 | 78 | 88.3 |
| Igfbp4 | 2 | 54.7 | 82.3 |
| Igfbp4 | 3 | 80.5 | 80.7 |
| Lman1 | 1 | 55 | 72.2 |
| Lman1 | 2 | 67.8 | 68.3 |
| Kat2a | 1 | 46.4 | 102 |
| Kat2a | 2 | 15.5 | 36.7 |
| Kat2a | 3 | 78.7 | 84.8 |
| Tuba1a | 1 | 90.5 | 76.7 |
| Tuba1a | 2 | 81 | 96.8 |

Sorted by “viability (ATP), % of control” (low to high): 11 of the entries above
| gene | reagent no. | GFP, % of control | viability (ATP), % of control |
| --- | --- | --- | --- |
| Prok2 | 2 | 63.9 | 59 |
| Oprl1 | 3 | 79.6 | 69.9 |
| Asf1b | 2 | 89.6 | 74 |
| Oprl1 | 2 | 78.2 | 75.4 |
| Prok2 | 1 | 66.2 | 75.4 |
| Serpinb10 | 3 | 89.9 | 77.8 |
| Serpinb10 | 1 | 65.4 | 80.5 |
| Serpinb10 | 2 | 70.5 | 84.1 |
| Oprl1 | 1 | 85.1 | 85.6 |
| Prok2 | 3 | 72.7 | 91.2 |
| Asf1b | 1 | 175 (active) | 117 |
